# In PubChem BioAssay AID540276 (National Center for Advancing Translational Sciences (NCATS), 2011):
# “And” between values parts separate entries of the source, which are not always exact repeats. Equal values may be shown once. Screen size: about 300,000 compounds; about 5,400 (1.8%) were called active. Inconclusive results, whose numbers are uncertain, are shown with a selection of clear calls. Calls come from the whole dose curve; tested in HEK293 cells. Potencies beside an inconclusive call are fits to weak or partial responses and may not hold up. Residues, ends and D or L forms follow the SMILES beside them. *: point of attachment. Boc = CC(C)(C)OC(=O)*; OtBu = CC(C)(C)O*
# Assay: qHTS for inhibitors of binding or entry into cells for Marburg Virus
# Conditions: Marburg virus pseudotyped entry inhibition, cell reporter; activity change, negative = inhibition: at 37.8 µM (top of the series) unless noted
# % is set by controls: 0 for no effect and ±100 for the full control effect; potency is the fitted concentration of half-maximal effect.
SMILES,Potency,"activity change, negative = inhibition"
Clc1ncccc1-c1nc2ccccc2s1,"inconclusive: 2.24 µM [inhibitor, partial curve, poor fit]",
COc1ccccc1Nc1nc(Cl)c(C=O)s1,,inactive: -22.4% [at 46.1 µM]
CSc1nc(N(C)NC(=O)c2ccc(Cl)cc2)c2ccccc2n1,"inconclusive: 0.447 µM [inhibitor, partial curve, poor fit]",
O=[N+]([O-])c1ccc(/C=N/N/C(=N/c2ccccn2)c2ccccn2)cc1,"inconclusive: 3.66 µM [activator, partial curve, poor fit]",
CN(C(=O)COC(=O)c1cncc(Br)c1)C1CCCCC1,"inconclusive: 0.141 µM [inhibitor, full curve, poor fit]",
COC(=O)c1c(C(=O)OC)c2cccc3cc(-c4ccccc4)c4ccc1c4n32,,inactive: 1.47%
COc1cc(CN(C(C)=O)c2ccccc2C(=O)O)ccc1[N+](=O)[O-],,inactive: 6.16%
CCOC(=O)c1nn(-c2ccccc2)c(-c2ccccc2)c1C(=O)c1ccccc1,"inconclusive: 35.5 µM [inhibitor, single point]",
Cc1nn(Cc2ccccc2)c2sc(C(=O)N3CCN(Cc4ccc5c(c4)OCO5)CC3)cc12,"inconclusive: 15.8 µM [inhibitor, single point]",
CCN(CC)C(=O)COC(=O)C1=NN(c2cc(C)ccc2C)C(=O)CC1,,inactive: 9.45% [at 46.1 µM]
COc1ccccc1-c1nnc(Sc2nc([N+](=O)[O-])nn2C)o1,"inconclusive: 9.2 µM [inhibitor, partial curve, poor fit]",
Cc1nn2c(NC(C)C)c3c(nc2c1-c1ccccc1)CCC3,"inconclusive: 3.55 µM [inhibitor, partial curve, poor fit]",
O=C(CCc1ccccc1)Nc1cc(C(=O)O)cc(C(=O)O)c1,,inactive: -15.9% [at 46.1 µM]
CC(=O)c1ccc(NC(=O)c2cn(-c3ccccc3)nc2-c2ccncc2)cc1,"inconclusive: 3.98 µM [inhibitor, partial curve, poor fit]",
Cc1ccc(/C(O)=C2\C(=O)C(=O)N(CC(C)O)C2c2ccccn2)cc1 (stereo not given),"inconclusive: 2.51 µM [inhibitor, single point]",
C[C@]12CCC3C(C[C@@H](O)[C@H]4C[C@@H](O)CC[C@]34C)C1CC[C@@H]2O (stereo not given in full),"inconclusive: 0.562 µM [inhibitor, full curve, poor fit]",
N#Cc1c(NC(=O)CSc2nnnn2C2CCCCC2)sc2c1CCCC2,"inconclusive: 5.62 µM [activator, single point]",
O=C1C2C3C=CC(C3)C2C(=O)N1c1cccc(-c2nc3ccccc3o2)c1 (stereo not given),,inactive: -2.19%
COc1cc(/C=C2\CCCc3c2nc2ccccc2c3C(=O)O)cc([N+](=O)[O-])c1O,,inactive: 3.51% [at 46.1 µM]
Cc1ccc(CSC2=Nc3ccccc3C3=NC(=O)CN23)cc1,"inconclusive: 4.11 µM [inhibitor, full curve, poor fit]",
CN(C)c1ccc(C(C#N)c2ccccc2)nn1 (stereo not given),"inconclusive: 3.98 µM [activator, partial curve, poor fit]",
CCOC(=O)C1CCCCN1Cc1cccc(OC)c1OC (stereo not given),,inactive: -12.1%
O=C(CCCN1C(=O)c2cccc3cccc(c23)C1=O)N1CCN(Cc2ccc3c(c2)OCO3)CC1,"inconclusive: 29.1 µM [inhibitor, single point]",

# Quoted at random: 4 compounds from above
SMILES,Potency,"activity change, negative = inhibition"
Cc1ccc(/C(O)=C2\C(=O)C(=O)N(CC(C)O)C2c2ccccn2)cc1 (stereo not given),"inconclusive: 2.51 µM [inhibitor, single point]",
Cc1ccc(CSC2=Nc3ccccc3C3=NC(=O)CN23)cc1,"inconclusive: 4.11 µM [inhibitor, full curve, poor fit]",
COc1cc(CN(C(C)=O)c2ccccc2C(=O)O)ccc1[N+](=O)[O-],,inactive: 6.16%
O=C(CCCN1C(=O)c2cccc3cccc(c23)C1=O)N1CCN(Cc2ccc3c(c2)OCO3)CC1,"inconclusive: 29.1 µM [inhibitor, single point]",

# (continued)

SMILES,Potency,"activity change, negative = inhibition"
COc1cc(/C=N/NC(=S)NC(C)C)ccc1OCC(=O)Nc1c(C)cc(C)cc1C,"inconclusive: 6.51 µM [inhibitor, single point]",
CC(=O)c1cccc(NC(=O)COc2ccccc2)c1,,inactive: -10.6%
NS(=O)(=O)c1ccc2nc(-c3ccccc3)c(-c3ccccc3)nc2c1,,inactive: -26.5% [at 46.1 µM]
COC(=O)C(Cc1ccc(O)cc1)NC(=O)C(CC(=O)OC(C)(C)C)NC(=O)OC(C)(C)C (stereo not given) (Boc-Asp(OtBu)-Tyr-OMe; configuration not given here),"inconclusive: 5.01 µM [activator, full curve, poor fit]",
Cc1ccccc1C(=O)O/N=C(\N)Cc1cccs1,"inconclusive: 35.5 µM [inhibitor, single point]",
COc1ccc(OCCC(=O)OCC(=O)NC2CCCCCCC2)cc1,"inconclusive: 11.2 µM [activator, partial curve]",
Clc1ccc(-c2c[n+](Cc3ccc(Br)cc3)c3n2CCCCC3)cc1,"inconclusive: 10 µM [inhibitor, partial curve, poor fit]",
CCCCCCCC(=O)NNC(=O)c1c(O)c2ccccc2n(CC)c1=O,"inconclusive: 15.8 µM [inhibitor, single point]",
CCn1cc(C2C3=C(CC(C)(C)CC3=O)N(c3ccccc3)C3=C2C(=O)CC(C)(C)C3)c(C)n1,,inactive: 8.08%
COc1cccc(CNC(=O)Cn2ncn3c(cc4ccccc43)c2=O)c1,"inconclusive: 2 µM [inhibitor, partial curve, poor fit]",
Cc1cc(NC(=O)CCC(=O)N(Cc2ccco2)C(C(=O)NC2CCCC2)c2ccc(F)cc2)no1 (stereo not given),"inconclusive: 35.5 µM [inhibitor, single point]",
Cc1cc(C)n(CC2CC(=O)N(c3ccc(C)c(Cl)c3)C2=O)n1 (stereo not given),"inconclusive: 22.4 µM [activator, partial curve, poor fit]",
COc1ccc(/C=N/NC(=O)c2nn(-c3ccc(Cl)cc3)c(=O)c3c(N)scc23)cc1,"inconclusive: 0.164 µM [inhibitor, full curve, poor fit]",
O=C(Cn1cnc2c(nnn2Cc2ccc(Cl)cc2)c1=O)NCc1ccco1,"inconclusive: 6.51 µM [inhibitor, partial curve, poor fit]",
C[N+]12CCC(CC1)C(C(O)(c1ccccc1)c1cccs1)C2 (stereo not given),,inactive: 0.616%
Nc1ccc2c(c1)CCC2=O,,inactive: 1.65%
Cc1ccc(-c2nc3cccc(C)n3c2Nc2ccc3c(c2)OCO3)o1,"inconclusive: 35.5 µM [inhibitor, single point]",
CN(C)c1ccc(CN2CCCCC2)cc1,"inconclusive: 14.1 µM [inhibitor, single point]",
Cc1ccc(C(C)C)c(OCCCn2ccnc2C)c1,"inconclusive: 8.91 µM [inhibitor, partial curve, poor fit]",
COC(=O)C1=C(C)NC(=S)NC1c1ccc(OCC(=O)N2CCCCC2)c(OC)c1 (stereo not given),"inconclusive: 1.12 µM [inhibitor, single point]",
CCN1CCN(Cc2c(OC)ccc3ccccc23)CC1,"inconclusive: 29.1 µM [inhibitor, single point]",
Cc1cccc(C)c1NC(=O)/C(C#N)=C/c1ccsc1,"inconclusive: 6.31 µM [activator, single point]",
N#Cc1ccc(NC(=O)CCc2ccc(S(=O)(=O)N3CCOCC3)cc2)cc1,,inactive: -2.6%
CN(C)CCNc1ncnc2sc(-c3ccccc3)cc12,"inconclusive: 14.1 µM [inhibitor, single point]",

SMILES,Potency,"activity change, negative = inhibition"
CN(CCc1cn[nH]c1)C(=O)CC1C(=O)NCCN1Cc1cccc(Oc2ccccc2)c1 (stereo not given),"inconclusive: 12.6 µM [activator, partial curve]",
COc1cc(OC)cc(C(=O)N2CCN(C(=O)COc3ccc(C)cc3)CC2)c1,,inactive: -7.44% [at 46.1 µM]
CC(Oc1ccccc1Cl)c1nnc(N)s1 (stereo not given),"inconclusive: 2 µM [inhibitor, partial curve, poor fit]",
CSc1nnc(-c2ccccc2Cl)n1N,,inactive: 2.86%
O=C(CC(=O)Nc1cccc(F)c1)Nc1cccc(F)c1,,inactive: 1.64%
N#Cc1nc(/C=C/c2ccc(F)cc2)oc1N1CCCCCC1,,inactive: -9.15% [at 46.1 µM]
COc1ccccc1/C=C/CN1CCOCC1,,inactive: 0.686%
CCc1nn(C(C)C(=O)NCCN2CCCCCC2)c(=O)c2cc3occc3n12 (stereo not given),"inconclusive: 35.5 µM [inhibitor, partial curve, poor fit]",
CCOc1ccccc1-c1cc(-c2n[nH]c(=S)n2CC)c2ccccc2n1,,inactive: -29.8%
Cc1ccc(S(=O)(=O)/N=C2/C=C(Sc3ncn[nH]3)C(=O)c3ccccc32)cc1,"inconclusive: 4.61 µM [inhibitor, full curve, poor fit]",
CC1(C)C2CCC(C2)C1(C)NC(=O)CNCC1CCCCC1 (stereo not given),active: 8.91 µM,
S=C(NCCCc1ccccc1)Nc1ccc(Cl)cc1,,inactive: 5.12%
Fc1ccc(-c2nc3n(n2)Cc2ccccc2-3)cc1,"inconclusive: 7.08 µM [inhibitor, partial curve, poor fit]",
CCC(OC(=O)c1ccco1)C(=O)NCc1ccc2c(c1)OCO2 (stereo not given),,inactive: -0.826% [at 46.1 µM]
COC1=CC(=O)C[C@@H](C)[C@]12Oc1c(Cl)c(OC)cc(OC)c1C2=O,"inconclusive: 8.2 µM [inhibitor, partial curve]",
N#Cc1ccccc1OCCOCCNC1CCCC1,"inconclusive: 3.98 µM [activator, single point]",
O=C(CSc1ccc(-c2ccc(F)cc2)nn1)N1CCCc2ccccc21,"inconclusive: 35.5 µM [inhibitor, single point]",
Cc1cc(SCC(=O)OCC(=O)c2c(N)n(C)c(=O)n(C)c2=O)c(C)cc1Br,,inactive: 2.54%
Cc1cc(NC(=O)COc2ccc(C)c(C)c2)no1,,inactive: -2.16% [at 46.1 µM]
O=C(OCC(F)(F)F)[C@H](O)[C@@H](O)C(=O)OCC(F)(F)F,"inconclusive: 0.473 µM [activator, partial curve, poor fit]",
COc1cc2c(cc1OC)C(SC)=NC1(CCCC1)C2,"inconclusive: 11.2 µM [inhibitor, single point]",
COc1ccccc1NC(=O)c1cc(=O)[nH]c2ccccc12,"inconclusive: 0.0891 µM [activator, full curve, poor fit]",
